Data taken from patent publication US9234043.
These are yes or no findings as the source states them, for the method shown. Some entries that bind do so weakly or less than the wild type.

B1: 2D10 (hybridoma) (antibody, V domains shown)
VH: EVQLVESGGGLVQPGGSLRLSCAASGFTFSNYAMNWVRQAPGKGLEWVSTISGSGGATRYADSVKGRFTISRDNSRNTVYLQMNSLRVEDTAVFYCTKDRLIMATVRGPYYYGMDVWGQGTTVTVSS
VL: DIQMTQSPSSLSASVGDRVTITCRASQSISSYLNWYQQKPGKAPNLLIYAASSLQSGVPSRFSGSGSETDFTLTISSLQPEDFATYYCQQSHSVSFTFGPGTKVDIK
B2: 2D10 (human) (antibody, human IgG4 S228P, kappa, V domains shown)
VH: B1 VH
VL: DIQMTQSPSSLSASVGDRVTITCRASQSISSYLNWYQQKPGKAPNLLIYAASSLQSGVPSRFSGSGSETDFTLTISSLQPEDFATYYCQQSHSVSFTFGPGTKVDIKR
B3: 10A07 (hybridoma) (antibody, V domains shown)
VH: EVQLVESGGVLVQPGGSLRLSCAASGFTFSSYIMTWVRQAPGKGLEWVSGISGSGGGTYYADSMKGRFTISRDNSKNTLYLQMNSLRVEDTAVYYCAKDRLGPITLVRGGYYYGMDVWGQGTTVTVSS
VL: DIQMTQSPSSLSASVGDRVTITCRASQSISDYLNWYQQKPGKAPKFLIYAASSLQSGVPSRFSGSGSGTDFTLTVSSLQPEDFATYYCQQSYSTPRTFGQGTRVEIK
B4: 10A07 (human) (antibody, human IgG4 S228P, kappa, V domains shown)
VH: B3 VH
VL: DIQMTQSPSSLSASVGDRVTITCRASQSISDYLNWYQQKPGKAPKFLIYAASSLQSGVPSRFSGSGSGTDFTLTVSSLQPEDFATYYCQQSYSTPRTFGQGTRVEIKR

Target: recombinant Rhesus (Macaca mulatta) OX40L (Rhesus (Macaca mulatta))
Assay: SPR (ProteOn XPR36), antibody captured, rhesus OX40L at 256 nM, 25 C; CNROR = Cannot resolve off-rate

binding, binds:
B1
B2
B3
B4
